# Library screen at single concentrations

The chains behind the UniProt entries cited, without tags or fusion partners. Residues count along the entry.
UniProt I6X8D2, whole entry: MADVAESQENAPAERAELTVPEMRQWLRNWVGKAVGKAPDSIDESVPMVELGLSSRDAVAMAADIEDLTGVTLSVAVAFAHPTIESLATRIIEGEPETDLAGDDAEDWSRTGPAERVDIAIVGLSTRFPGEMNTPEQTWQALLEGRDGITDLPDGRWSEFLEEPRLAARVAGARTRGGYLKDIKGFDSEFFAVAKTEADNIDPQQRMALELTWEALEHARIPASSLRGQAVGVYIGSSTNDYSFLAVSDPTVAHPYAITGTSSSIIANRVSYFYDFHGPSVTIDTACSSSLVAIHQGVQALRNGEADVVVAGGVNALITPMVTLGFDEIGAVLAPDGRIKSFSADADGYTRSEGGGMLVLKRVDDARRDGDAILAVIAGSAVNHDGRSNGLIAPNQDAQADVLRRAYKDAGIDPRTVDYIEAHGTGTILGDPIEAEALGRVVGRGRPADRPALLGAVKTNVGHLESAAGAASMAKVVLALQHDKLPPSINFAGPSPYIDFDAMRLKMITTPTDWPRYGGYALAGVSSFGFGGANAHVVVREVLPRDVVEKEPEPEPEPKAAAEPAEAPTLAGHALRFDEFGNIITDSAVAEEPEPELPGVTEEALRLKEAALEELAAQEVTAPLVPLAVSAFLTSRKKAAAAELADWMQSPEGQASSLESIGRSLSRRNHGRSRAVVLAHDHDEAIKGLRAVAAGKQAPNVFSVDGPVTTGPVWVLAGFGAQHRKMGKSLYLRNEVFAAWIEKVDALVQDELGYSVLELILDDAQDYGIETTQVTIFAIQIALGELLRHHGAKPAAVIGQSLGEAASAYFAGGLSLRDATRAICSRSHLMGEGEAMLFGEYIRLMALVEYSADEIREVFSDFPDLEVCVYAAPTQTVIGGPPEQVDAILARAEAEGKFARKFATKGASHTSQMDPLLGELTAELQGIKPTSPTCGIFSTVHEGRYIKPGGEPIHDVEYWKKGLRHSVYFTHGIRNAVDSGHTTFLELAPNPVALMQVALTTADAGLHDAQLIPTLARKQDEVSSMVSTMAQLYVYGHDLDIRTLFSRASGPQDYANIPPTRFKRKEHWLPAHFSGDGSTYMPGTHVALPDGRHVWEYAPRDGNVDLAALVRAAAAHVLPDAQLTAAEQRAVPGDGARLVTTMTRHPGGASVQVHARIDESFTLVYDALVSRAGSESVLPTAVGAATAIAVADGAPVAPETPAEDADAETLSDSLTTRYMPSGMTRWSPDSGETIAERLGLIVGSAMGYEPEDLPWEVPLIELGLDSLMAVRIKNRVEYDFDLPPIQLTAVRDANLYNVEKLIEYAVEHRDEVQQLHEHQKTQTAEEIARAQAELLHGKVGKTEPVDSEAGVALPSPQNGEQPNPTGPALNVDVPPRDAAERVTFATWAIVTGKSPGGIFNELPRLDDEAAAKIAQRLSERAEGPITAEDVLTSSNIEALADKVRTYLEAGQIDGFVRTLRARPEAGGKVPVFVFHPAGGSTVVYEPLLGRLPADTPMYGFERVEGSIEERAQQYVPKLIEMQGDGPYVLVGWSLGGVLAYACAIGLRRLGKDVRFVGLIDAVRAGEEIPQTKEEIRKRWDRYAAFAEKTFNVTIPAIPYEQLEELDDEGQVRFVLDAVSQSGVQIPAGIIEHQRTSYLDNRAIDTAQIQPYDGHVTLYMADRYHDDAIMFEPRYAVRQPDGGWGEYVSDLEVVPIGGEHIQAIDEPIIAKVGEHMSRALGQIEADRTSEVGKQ
UniProt A4I591, 1-473: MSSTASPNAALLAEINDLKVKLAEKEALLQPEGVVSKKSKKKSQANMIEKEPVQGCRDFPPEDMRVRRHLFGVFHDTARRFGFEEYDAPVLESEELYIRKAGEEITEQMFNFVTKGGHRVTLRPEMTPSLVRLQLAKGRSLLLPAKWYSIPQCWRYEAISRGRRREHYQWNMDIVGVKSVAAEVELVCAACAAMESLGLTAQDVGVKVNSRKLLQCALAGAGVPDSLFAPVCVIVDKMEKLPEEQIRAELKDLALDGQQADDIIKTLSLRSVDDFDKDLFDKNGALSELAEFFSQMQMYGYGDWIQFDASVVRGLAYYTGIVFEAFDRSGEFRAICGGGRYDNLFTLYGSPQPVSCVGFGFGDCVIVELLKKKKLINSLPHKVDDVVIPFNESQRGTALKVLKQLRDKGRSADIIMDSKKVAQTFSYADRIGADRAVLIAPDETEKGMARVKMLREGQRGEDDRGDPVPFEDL
UniProt P9WPC5, whole entry: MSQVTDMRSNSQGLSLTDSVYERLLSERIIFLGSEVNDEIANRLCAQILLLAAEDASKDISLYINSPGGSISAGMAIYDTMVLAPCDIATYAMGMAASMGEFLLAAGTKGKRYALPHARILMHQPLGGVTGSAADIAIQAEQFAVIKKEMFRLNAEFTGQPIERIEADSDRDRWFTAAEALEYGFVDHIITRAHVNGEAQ
UniProt P9WPC3, whole entry partner: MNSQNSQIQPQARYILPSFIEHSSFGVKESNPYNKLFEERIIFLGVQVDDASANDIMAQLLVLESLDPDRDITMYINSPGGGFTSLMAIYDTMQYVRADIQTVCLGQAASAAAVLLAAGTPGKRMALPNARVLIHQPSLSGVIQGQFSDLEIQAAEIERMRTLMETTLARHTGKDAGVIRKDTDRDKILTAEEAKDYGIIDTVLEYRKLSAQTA
UniProt P9WNZ1, whole entry: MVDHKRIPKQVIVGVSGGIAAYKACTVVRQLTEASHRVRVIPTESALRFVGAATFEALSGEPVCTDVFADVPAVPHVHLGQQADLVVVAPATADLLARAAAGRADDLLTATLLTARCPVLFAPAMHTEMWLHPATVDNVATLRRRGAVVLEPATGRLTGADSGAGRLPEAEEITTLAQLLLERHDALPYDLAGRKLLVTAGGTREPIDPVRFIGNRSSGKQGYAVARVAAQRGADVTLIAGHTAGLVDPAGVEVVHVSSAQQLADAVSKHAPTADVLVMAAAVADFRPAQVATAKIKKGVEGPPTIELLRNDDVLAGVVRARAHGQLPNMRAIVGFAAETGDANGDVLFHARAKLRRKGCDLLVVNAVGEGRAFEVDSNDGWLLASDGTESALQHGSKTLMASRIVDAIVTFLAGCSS

Pks13 thioesterase: 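Enzyme assay of the thioesterase domain of polyketide synthase 13; the read-out is not stated. Target: Polyketide synthase Pks13, Mycobacterium tuberculosis (UniProt I6X8D2). Compounds at 30 µM. Higher reads as stronger inhibition (inferred from which compounds were picked for retests). About 67,000 compounds were tested under these conditions; 0.46% (about 300) showed 50% or more at least once.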
LiHisRS: 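Histidine-tRNA ligase, Leishmania infantum (UniProt A4I591). Enzyme assay of histidyl-tRNA synthetase; the read-out is not stated. Concentration: 30 µM. The record gives no direction; compounds that gave an IC50 in retests scored well above the rest, so higher reads as stronger inhibition. The assay is labelled LdHisRS but filed under L. infantum. Of about 69,000 compounds tested this way, about 410 (0.6%) reached 50% or more in at least one test.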
Leishmania in macrophages: 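Cell assay of Leishmania donovani living inside macrophages; the read-out is not stated. Concentration: 30 µM. Direction is inferred from retests: higher values go with stronger inhibition. About 69,000 compounds were tested under these conditions; 1.5% (about 1,000) showed 50% or more at least once.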
ClpP1P2: 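ClpP1P2, Mycobacterium tuberculosis (UniProt P9WPC5 and UniProt P9WPC3). Protease assay of ClpP1P2, read by the AMC dye that it sets free. Compounds at 50 µM. Direction is inferred from only a few compounds that gave an IC50; most scored high, so higher reads as stronger inhibition. Most other retested compounds had strongly negative values. Size under these conditions: about 69,000 compounds, about 10 of them at 50% or above in at least one test.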
Toxoplasma: 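Assay of Toxoplasma gondii numbers, read through their beta-galactosidase reporter with a colour substrate. Tested at 10 µM. The record gives no direction; the compounds picked for IC50 retests had high values, so higher reads as fewer parasites. Of about 67,000 compounds tested this way, about 260 (0.38%) reached 50% or more in at least one test.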
CoaBC: 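Enzyme assay of CoaBC with a phosphate dye (Biomol Green) read at 650 nm. Target: Coenzyme A biosynthesis protein CoaBC, Mycobacterium tuberculosis (UniProt P9WNZ1). Concentration: 30 µM. Direction is inferred from only a few compounds that gave an IC50; most scored high, so higher reads as stronger inhibition. Most strong results did not repeat in a second test. Of about 67,000 compounds tested this way, about 40 (0.06%) reached 50% or more in at least one test.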

Each number is a percent effect as filed.
The record does not define 0% and 100%; most values in the screen are far below 50% and negative numbers occur (in some assays of this library far below -100).
The compounds are a random part of those screened.
A dash means the value is not listed here; it may have been measured.

Compound: CC(C)Cc1nc(CS(C)(=O)=O)n(-c2ccccn2)n1
Pks13 thioesterase: -15.8%
LiHisRS: 12.68%
Leishmania in macrophages: -2.504%
ClpP1P2: -2.753%
Toxoplasma: -4.854%

Compound: Cc1sc(C(=O)NS(C)(=O)=O)cc1-c1ccc(F)cc1
Pks13 thioesterase: -25.63%
LiHisRS: 7.254%
Leishmania in macrophages: -9.53%
ClpP1P2: -2.044%
Toxoplasma: 6.426%
CoaBC: 3.439%

Compound: CC(=O)NCCC1CCCCN1S(=O)(=O)c1cccc(F)c1 (stereo not drawn)
Pks13 thioesterase: 3.653%
LiHisRS: 7.447%
Leishmania in macrophages: -9.521%
ClpP1P2: 27.77%
Toxoplasma: 0.2727%
CoaBC: 8.885%

Compound: COc1cccc(CCNC(=O)c2ccc(=O)n(C)c2)c1
Pks13 thioesterase: -3.94%
LiHisRS: 16.67%
Leishmania in macrophages: -25.63%
ClpP1P2: -2.807%
Toxoplasma: 9.767%
CoaBC: 3.365%

Compound: CC(c1ccccc1)N1CCC(NC(=O)CCc2ccsc2)CC1 (stereo not drawn)
Pks13 thioesterase: -11.94%
LiHisRS: 15.18%
Leishmania in macrophages: -1.687%
ClpP1P2: -8.589%
Toxoplasma: 0.3751%
CoaBC: -5.556%

Compound: CCN(Cc1cc(Br)ccc1F)C(=O)C(C)NC(N)=O (stereo not drawn)
Pks13 thioesterase: 4.49%
LiHisRS: 20.43%
Leishmania in macrophages: 5.559%
ClpP1P2: -6.361%
Toxoplasma: -3.823%
CoaBC: 7.917%

Compound: Cn1cnn(CC(=O)NCc2ccccc2F)c1=O
Pks13 thioesterase: -28.63%
LiHisRS: 14.29%
Leishmania in macrophages: 1.528%
ClpP1P2: 0.5344%
Toxoplasma: -1.705%
CoaBC: -4.065%

Compound: CC(Cn1cccn1)NCc1ccc(OCc2ccncc2)cc1 (stereo not drawn)
Pks13 thioesterase: -21.05%
LiHisRS: 14.78%
Leishmania in macrophages: 11.75%
ClpP1P2: -9.937%
Toxoplasma: 3.163%
CoaBC: 13.36%

Compound: CCOC[C@H]1CC[C@H]2[C@H](CCN2S(=O)(=O)Cc2ccccc2)O1
Pks13 thioesterase: -24.35%
LiHisRS: 15.79%
ClpP1P2: -0.9819%
CoaBC: 7.128%

Compound: COc1cccc(C2CCN(c3ccc4cc[nH]c4n3)C2)c1OC (stereo not drawn)
Pks13 thioesterase: -51.22%
LiHisRS: 8.333%
Leishmania in macrophages: 36.9%
ClpP1P2: -0.2048%
Toxoplasma: 9.542%
CoaBC: 8.74%

Compound: CCc1nnc(C2Cc3ccccc3CN2Cc2ncc(Cl)n2C)o1 (stereo not drawn)
Pks13 thioesterase: -28.99%
LiHisRS: -2.083%
Leishmania in macrophages: 2.085%
ClpP1P2: -8.514%
Toxoplasma: 0.0612%
CoaBC: -9.375%

Compound: COc1cccc(/C=C/CCN2CCC(C(=O)N3CCCC3)CC2)c1
Pks13 thioesterase: 2.046%
LiHisRS: 6.667%
Leishmania in macrophages: -1.448%
ClpP1P2: -6.049%
Toxoplasma: 6.433%
CoaBC: 0%

Compound: COCCN1CC(Nc2nc(C3CCCC3)nc3c2cnn3C)CC1=O (stereo not drawn)
Pks13 thioesterase: 1.322%
LiHisRS: 12.5%
Leishmania in macrophages: -7.501%
ClpP1P2: -6.26%
Toxoplasma: -1.712%

Compound: Cc1ccccc1C(CC(=O)NCC(N)=O)c1ccccc1 (stereo not drawn)
Pks13 thioesterase: -35.56%
LiHisRS: 4.167%
Leishmania in macrophages: 23.92%
ClpP1P2: -4.13%
Toxoplasma: 5.479%

Compound: CC1CCCN(C(=O)CCNS(=O)(=O)c2cccnc2)C1 (stereo not drawn)
Pks13 thioesterase: -5.354%
LiHisRS: 9.524%
Leishmania in macrophages: -1.432%
ClpP1P2: -1.311%
Toxoplasma: -3.009%
CoaBC: 0.6483%

Compound: Cc1ncccc1NC(=O)[C@@H]1CCO[C@@H]2CCN(c3ccncn3)C[C@H]21
Pks13 thioesterase: 11.1%
LiHisRS: 7.692%
ClpP1P2: -9.968%
CoaBC: 2.788%

Compound: CN(C)CC1CN(Cc2ccc(-n3cccn3)cc2)CCO1 (stereo not drawn)
Pks13 thioesterase: -7.036%
LiHisRS: 10.17%
Leishmania in macrophages: 23.7%
ClpP1P2: -14.08%
Toxoplasma: 12.46%
CoaBC: -1.312%

Compound: Cc1cccc(CN2CC[C@H]3O[C@H](C(=O)Nc4cnccn4)CC[C@H]32)n1
Pks13 thioesterase: -4.798%
LiHisRS: 13.83%
ClpP1P2: -0.6601%
CoaBC: 7.593%

Compound: CCC(CNC1CCN(C(C)=O)CC1)Oc1cccc(C)c1 (stereo not drawn)
Pks13 thioesterase: -10.4%
LiHisRS: 13.13%
Leishmania in macrophages: 5.519%
ClpP1P2: 7.94%
Toxoplasma: -50.23%
CoaBC: -0.2415%

Compound: COc1nc2ccn(CCNc3cc(C)ccn3)c(=O)c2cc1C#N
Pks13 thioesterase: -15.33%
LiHisRS: 8.571%
Leishmania in macrophages: 21.74%
ClpP1P2: -4.82%
Toxoplasma: 6.347%
CoaBC: 17.49%

Compound: CC1CN(C)CCN1C(=O)c1ccn(-c2cccc(Cl)c2)n1 (stereo not drawn)
Pks13 thioesterase: -5.433%
LiHisRS: 13.7%
Leishmania in macrophages: 21.7%
ClpP1P2: -2.652%
Toxoplasma: 0.847%
CoaBC: -3.133%

Compound: Cc1cnn(CCCN2C(=O)CCc3ccccc32)c1
Pks13 thioesterase: -4.302%
LiHisRS: 3.306%
Leishmania in macrophages: -18.12%
ClpP1P2: 4.5%
Toxoplasma: 1.158%
CoaBC: -3.672%

Compound: [H][C@@]12CCN(C[C@@H]1C(=O)N1CCOCC1)[C@@H](Cn1cc(C(C)(C)O)nn1)C2
Leishmania in macrophages: 75.59%
Toxoplasma: -6.371%

Compound: Cc1ccc(CN2CCOC3(COCCN(S(C)(=O)=O)C3)C2)s1.O=C(O)C(F)(F)F (stereo not drawn)
Leishmania in macrophages: 20.26%
Toxoplasma: 10.78%

Compound: COc1ccsc1C(=O)NC1CCN(c2ccc(C#N)cc2)CC1
Pks13 thioesterase: 16.38%
LiHisRS: 27.06%
Leishmania in macrophages: 46.29%
ClpP1P2: -6.759%
Toxoplasma: 5.603%
CoaBC: 6.149%

Compound: CCN(CC)C(=O)c1ccn(COc2c(Cl)cccc2Cl)n1
Pks13 thioesterase: -12.46%
LiHisRS: 15.52%
Leishmania in macrophages: 19.73%
ClpP1P2: 6.083%
Toxoplasma: 3.434%
CoaBC: -4.619%

Repeated from the top, 3 entries:

| Compound | Pks13 thioesterase | LiHisRS | Leishmania in macrophages | ClpP1P2 | Toxoplasma | CoaBC |
|---|---|---|---|---|---|---|
| `CC(C)Cc1nc(CS(C)(=O)=O)n(-c2ccccn2)n1` | -15.8% | 12.68% | -2.504% | -2.753% | -4.854% | - |
| `Cc1sc(C(=O)NS(C)(=O)=O)cc1-c1ccc(F)cc1` | -25.63% | 7.254% | -9.53% | -2.044% | 6.426% | 3.439% |
| `CC(=O)NCCC1CCCCN1S(=O)(=O)c1cccc(F)c1` (stereo not drawn) | 3.653% | 7.447% | -9.521% | 27.77% | 0.2727% | 8.885% |

Data taken from ChEMBL document CHEMBL3988442, “University of Dundee, Small-Polar-MMV Screening Library” (2021).